Library screening results

Mtb growth Cornell: 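Whole-cell assay for inhibitors of Mycobacterium tuberculosis growth, labelled Cornell in the record; the read-out is not stated. The concentration is filed as 10 mM, unlikely as a test dose, so the dose is not known. Higher means stronger inhibition (inferred from two other growth screens of the library). About 53,000 compounds were tested under these conditions; 1.7% (about 900) showed 50% or more at least once.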
Mtb heat-shock: 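Assay on Mycobacterium tuberculosis, filed only as a heat shock assay from Cornell; the read-out is not stated. The concentration is filed as 10 mM, unlikely as a test dose, so the dose is not known. Higher reads as stronger inhibition (inferred: compounds with an IC50 in retests scored well above the rest). About 69,000 compounds were tested under these conditions; 1.4% (about 930) showed 50% or more at least once.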

Results are given as percent effect. How 0% and 100% were set is not recorded. Most values in the screen are low, and negative values occur. Compounds were drawn at random from those tested, without regard to their results. A dash means the value is not listed here; it may have been measured.

| # | SMILES | Mtb growth Cornell | Mtb heat-shock |
|---|---|---|---|
| 1 | `Cn1cc(S(=O)(=O)N2CCCC2Cn2ccnc2)cn1` (centres unmarked) | 7.777% | 15.71% |
| 2 | `CCOCC1CN(C(=O)Cc2ccccn2)Cc2cn(C)nc21` (centres unmarked) | -4.26% | -21.25% |
| 3 | `O=S(=O)(N1CCOCC1)N1CCCC1Cn1cccn1` (centres unmarked) | -5.768% | 2.817% |
| 4 | `COc1ccc(-c2noc(Cn3cc4c(n3)CCC4)n2)c(OC)c1OC` | - | 11.08% |
| 5 | `Cn1cccc1C(=O)N1CCN(Cc2cccnc2)c2ncccc2C1.O=C(O)C(F)(F)F.O=C(O)C(F)(F)F` | -0.0591% | -6.048% |
| 6 | `CN(CC(=O)N(C)C(c1cccnc1)c1ccc(F)c(F)c1)C1CC1` (centres unmarked) | -104.7% | -22.34% |
| 7 | `O=C(NC1CC1)C1CN(c2nc3ccccc3s2)CCN1` (centres unmarked) | 15.43% | -0.5421% |
| 8 | `Cn1cc(C(=O)N2CCCC(C(=O)CCc3ccccc3)C2)cn1` (centres unmarked) | 19.99% | 8.625% |
| 9 | `Cc1ccc(OCC(=O)N2CCOCC(O)(CN3CCCC3)C2)cc1C` (centres unmarked) | - | -9.586% |
| 10 | `Cc1cccc2[nH]c(C3CCCN(Cc4ccc(CO)o4)C3)nc12` (centres unmarked) | 16.81% | 3.532% |
| 11 | `CC1CCN(C)c2ccccc2N1C(=O)c1ccnc(-n2cncn2)c1` (centres unmarked) | 30.67% | -4.004% |
| 12 | `CN1CC2(CCNCC2)COc2ccccc2S1(=O)=O` | -9.067% | -8.758% |
| 13 | `CCC(C(=O)NCC1=CCCN(C)C1)c1ccccc1` (centres unmarked) | -1.027% | 5.63% |
| 14 | `COc1ccccc1CCNC(=O)NCC(=O)Nc1cccnc1` | 20.07% | -3.989% |
| 15 | `O=C(NCC(F)F)c1ccc(S(=O)(=O)N2CCCC(O)C2)cc1` (centres unmarked) | - | 0.6192% |
| 16 | `O=C(CCn1cnc2cc(F)c(F)cc21)N1CCN(C2CC2)CC1` | - | 4.618% |
| 17 | `CC(=O)NCC(=O)N1CCC2(CC1)C(=O)N(CC1CC1)c1ccccc12` | 16.92% | -4.06% |
| 18 | `Cc1ccc(-c2ccccc2CC2(C(=O)NC(C)C)CCCNC2)cc1` (centres unmarked) | 60.07% | -4.849% |
| 19 | `CCC(CC)NC(=O)c1ccc2nnc(C3CCN(S(C)(=O)=O)C3)n2c1` (centres unmarked) | - | -42.27% |
| 20 | `COc1ccc(NC(=O)CCC2CCCN(Cc3ncon3)C2)c(C)c1` (centres unmarked) | 13.14% | 7.274% |
| 21 | `O=S(=O)(NCCc1c[nH]c2ccc(F)cc12)C1CCOCC1` | - | 11.73% |
| 22 | `NC(=O)C1CCN(c2nc3nccc(-c4ccccn4)c3c(=O)[nH]2)CC1` | -3.09% | -4.815% |
| 23 | `CC(=O)Oc1ccnc(C(F)(F)F)c1C(C)=O` | - | -18.1% |
| 24 | `O=C(CN1CCCC(c2ccn[nH]2)C1)N1CCCc2ccccc21` (centres unmarked) | -16.42% | -24.99% |
| 25 | `CCOCC(=O)N1Cc2nccn2CC(CN2CCCC2)C1.O=C(O)C(F)(F)F` (centres unmarked) | 6.936% | -0.008276% |
| 26 | `O=C(Nc1ccc(Cn2cccn2)cc1)N1CCC(CO)CC1` | 19.73% | -8.868% |
| 27 | `CCc1noc(C)c1C(=O)N1CCC(c2[nH]ncc2S(C)(=O)=O)C1` (centres unmarked) | - | -13.31% |
| 28 | `CCc1ocnc1C(=O)N1CCOC(c2nc(C)n[nH]2)C1` (centres unmarked) | 5.039% | 5.991% |
| 29 | `Cn1cc(CN2CCCC23CCN(C(=O)c2ccsc2)CC3)cn1.O=C(O)C(F)(F)F` | -20.58% | -15.33% |
| 30 | `O=S(=O)(NCC1COc2ccccc2C1)N1CCOCC1` (centres unmarked) | 8.606% | -4.219% |
| 31 | `CN(C)C(=O)c1nc2c(n1C)CCN(Cc1ccccc1)C2` | 8.393% | 8.482% |
| 32 | `O=C(O)C(F)(F)F.[H][C@]12CCN(C(=O)Cc3cccs3)C[C@@]1([H])OCCN(C)C2` | 3.29% | -4.265% |
| 33 | `[H][C@@]12CCN(C[C@@H]1CC)[C@@H](CNC(=O)c1ccco1)C2` | 10.65% | 3.689% |
| 34 | `O=C(C[S+]([O-])C1CCCC1)NCCOc1cccc(Cl)c1` (centres unmarked) | 27.83% | -2.969% |
| 35 | `O=C(O)C(F)(F)F.[H][C@]12CCN(C(=O)Cc3cccc(F)c3)C[C@@]1([H])OCCN(CCOC)C2` | -11.6% | -7.058% |
| 36 | `Cc1ccc(CNCC2Cn3nnc(-c4cnn(C)c4)c3CO2)o1` (centres unmarked) | - | -23.68% |
| 37 | `Cc1nccn1-c1ccc(NS(=O)(=O)c2cnn(C)c2)cn1` | -3.393% | -37.71% |
| 38 | `Cc1csc(CN(C)C2CCN(c3sccc3C#N)C2=O)n1` (centres unmarked) | - | -26.99% |
| 39 | `Cc1nn(C)c(C)c1C1COCCN1c1ncncc1Br` (centres unmarked) | -6.883% | 5.319% |
| 40 | `Cc1cc(CN2CCN(C(=O)NC(C)Cn3ccnc3)CC2)on1` (centres unmarked) | - | -0.07864% |
| 41 | `Cc1noc(C)c1-c1cccc(C2CCNCC2)n1` | -2.257% | -25.04% |
| 42 | `O=C(NCc1ccccc1CN1CCOCC1)c1ccc(Br)cc1F` | 8.243% | -25.83% |
| 43 | `Cc1c(C(=O)NCC2CCN(Cc3c[nH]cn3)C2)[nH]c2ccccc12` (centres unmarked) | -27.97% | 5.591% |
| 44 | `CC(C)c1nc2c(n1C)CCN(Cc1nc(-c3ccoc3)no1)C2` | - | -1.716% |
| 45 | `Cc1ccc(C(=O)N2CCC3(CC2)CC(c2cnn(C)c2)CO3)cn1.O=C(O)C(F)(F)F` (centres unmarked) | 14.9% | -3.038% |
| 46 | `CCN1CCOCC12CCN(C(=O)C1CCC1)CC2.O=C(O)C(F)(F)F` | -9.014% | -13.02% |
| 47 | `COc1ccccc1CC(=O)N1CCC(NCc2ccccn2)CC1` | - | -46.43% |
| 48 | `CCc1n[nH]c(C2CN(C(=O)CCc3cscn3)CCO2)n1` (centres unmarked) | - | 6.825% |
| 49 | `Cc1ccc(CNCC2CCN(CCO)CC2)cc1` | -1.65% | -30.45% |
| 50 | `COc1cccc(S(=O)(=O)CCNC2CCc3ncnn3C2)c1` (centres unmarked) | - | 5.062% |
| 51 | `COc1c(C2CCCN2C(=O)c2cncnc2C)c(C)nn1C` (centres unmarked) | -27.58% | 15.37% |
| 52 | `CC(NC(=O)Nc1ccccc1CN1CCOCC1)c1nnc(N)s1` (centres unmarked) | - | 21.74% |
| 53 | `CC(C)Oc1ncccc1CNC(=O)N1CCOCC1` | 0.3262% | -4.054% |
| 54 | `CCc1ncc2c(n1)CN(c1cc(N3CCN(C)CC3)nc(N)n1)C2` | - | -8.792% |
| 55 | `CC(=O)NC1CCCN(C(=O)CNc2cc(Cl)cc(Cl)c2)C1` (centres unmarked) | - | -6.081% |
| 56 | `CC(C)NC(=O)N1CCC(n2ccc(C(F)(F)F)n2)CC1` | -22.44% | -3.607% |
| 57 | `O=C1CC2(CCN(c3nncs3)C2)CN1c1cccc(F)c1` (centres unmarked) | - | -9.273% |
| 58 | `c1nc(C2CCCCO2)ncc1CN1CCOCC1` (centres unmarked) | -10.33% | -1.686% |
| 59 | `CCC(Nc1ccc(Oc2ccccc2OC)cc1)C(N)=O` (centres unmarked) | - | -2.781% |
| 60 | `CC(C)S(=O)(=O)NCC1CCCN(C(=O)c2ccc(Cl)cc2)C1` (centres unmarked) | -20.72% | -1.04% |
| 61 | `Fc1ccc(C2(CNC3=NCCN3)CCCC2)cc1.I` | 20.05% | -10.55% |
| 62 | `O=C1CCC2(CCN(Cc3ccoc3)CC2)N1OCc1ccccc1F` | 8.769% | 5.824% |
| 63 | `O=c1oc(-c2ccc(F)cc2)nn1CN1CCN(CC2CC2)CC1` | -18.64% | -11.82% |
| 64 | `O=C(O)c1cccnc1CN1CCCCC1CCc1cccc(O)c1` (centres unmarked) | - | -36.38% |
| 65 | `CCc1cc(N(C)Cc2ccncn2)n2nccc2n1` | -22.97% | 10.82% |
| 66 | `[H][C@@]12CCCC[C@]1(O)CCN(C(=O)c1ccc3ccn(C)c3c1)C2` | -13.4% | -15.27% |
| 67 | `CC(=O)OC1CN(c2nc3c(C)cccc3s2)C1` | 8.773% | -13.72% |
| 68 | `Cc1ccc(C(=O)Nc2ccc(OC3CCN(C)CC3)cc2)c(C)c1` | 14.98% | 9.879% |
| 69 | `CCN1CCN(c2ccc(C(=O)NC(C)C(=O)N(C)C)cc2)CC1` (centres unmarked) | 22.24% | 0.2501% |

Some entries from above, unchanged:

SMILES,Mtb growth Cornell,Mtb heat-shock
CN(CC(=O)N(C)C(c1cccnc1)c1ccc(F)c(F)c1)C1CC1 (centres unmarked),-104.7%,-22.34%
COc1ccccc1CC(=O)N1CCC(NCc2ccccn2)CC1,-,-46.43%
CC(NC(=O)Nc1ccccc1CN1CCOCC1)c1nnc(N)s1 (centres unmarked),-,21.74%
O=S(=O)(N1CCOCC1)N1CCCC1Cn1cccn1 (centres unmarked),-5.768%,2.817%
CCC(CC)NC(=O)c1ccc2nnc(C3CCN(S(C)(=O)=O)C3)n2c1 (centres unmarked),-,-42.27%
O=C(C[S+]([O-])C1CCCC1)NCCOc1cccc(Cl)c1 (centres unmarked),27.83%,-2.969%
Cc1ccc(OCC(=O)N2CCOCC(O)(CN3CCCC3)C2)cc1C (centres unmarked),-,-9.586%
COc1ccc(-c2noc(Cn3cc4c(n3)CCC4)n2)c(OC)c1OC,-,11.08%
O=C(O)c1cccnc1CN1CCCCC1CCc1cccc(O)c1 (centres unmarked),-,-36.38%

Measurements from “University of Dundee, Small-Polar-MMV Screening Library” (2021), ChEMBL document CHEMBL3988442.